No constants are given. Whether binding was seen depends on the method and setting. Some binding calls cover weakened binding; strength is not graded here.
How the values were obtained:
[1] = biological target: human PD-1 expressed on cells (human) (UniProt Q15116); test: flow cytometry on human PD-1 expressing cells
[2] = biological target: human PD-1 expressed on cells (human) (UniProt Q15116); test: flow cytometry (FACS) on CHO cells expressing human PD-1
[3] = biological target: recombinant PD-1 extracellular domain (ECD) protein (human) (UniProt Q15116); test: screen of sdAb supernatants: ELISA on PD-1 ECD protein and FACS on PD-1 stable cell line

Sequences of proteins named here, by UniProt entry; tags and fusion partners are left off. A change or cut given only in a name is not applied to a line headed by its entry.
UniProt Q15116: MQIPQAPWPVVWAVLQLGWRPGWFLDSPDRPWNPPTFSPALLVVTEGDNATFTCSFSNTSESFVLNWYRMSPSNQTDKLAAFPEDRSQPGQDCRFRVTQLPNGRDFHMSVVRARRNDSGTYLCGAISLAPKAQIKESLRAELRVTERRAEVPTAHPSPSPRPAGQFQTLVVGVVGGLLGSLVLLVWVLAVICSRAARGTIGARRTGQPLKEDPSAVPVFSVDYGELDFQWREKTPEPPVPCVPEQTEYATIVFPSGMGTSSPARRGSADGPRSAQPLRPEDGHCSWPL

Measured: binding

B1: AS06962 sdAb (VHH)
VHH: QVHLVDSGGGLVQPGGSLRLSCAASGSITSRNTMGWYRQVPGKQRELVALIATFVTHYADSVKGRFTISRDNARKMVFLEMNSLQPEDTGAYYCYVDVSPYWGRGTQVTVSS
binds: all assays above
